Results are given in words; binding and its absence hold for the method and conditions named. In cells and extracts the contact can be indirect. A yes stands for co-enrichment or nearness to the bait. Other partners may have been found. A no says only that the protein was not detected with the bait. Where a sequence is shown, tags or fusion partners need not be part of it.

The chains behind the UniProt entries cited, without tags or fusion partners.
UniProt Q5RKV6: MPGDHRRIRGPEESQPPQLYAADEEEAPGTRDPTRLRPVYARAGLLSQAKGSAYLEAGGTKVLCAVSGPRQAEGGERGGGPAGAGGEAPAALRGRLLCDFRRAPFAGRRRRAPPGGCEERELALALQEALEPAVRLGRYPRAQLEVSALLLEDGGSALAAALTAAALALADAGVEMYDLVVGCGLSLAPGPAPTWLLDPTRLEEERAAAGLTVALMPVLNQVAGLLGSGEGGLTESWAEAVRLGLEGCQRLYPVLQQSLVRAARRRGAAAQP
UniProt Q06265: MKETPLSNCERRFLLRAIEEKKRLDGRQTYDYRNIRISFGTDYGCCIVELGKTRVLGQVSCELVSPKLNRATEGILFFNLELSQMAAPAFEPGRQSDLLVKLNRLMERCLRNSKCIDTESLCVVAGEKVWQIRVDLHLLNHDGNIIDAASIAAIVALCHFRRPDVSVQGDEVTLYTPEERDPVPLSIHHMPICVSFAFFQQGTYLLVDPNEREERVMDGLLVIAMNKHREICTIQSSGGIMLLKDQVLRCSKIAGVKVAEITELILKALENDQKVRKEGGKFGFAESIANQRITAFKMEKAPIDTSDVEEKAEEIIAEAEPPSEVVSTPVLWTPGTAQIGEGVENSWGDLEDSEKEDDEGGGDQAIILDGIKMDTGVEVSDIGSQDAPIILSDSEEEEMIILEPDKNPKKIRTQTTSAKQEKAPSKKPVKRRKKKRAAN
UniProt Q9NQT4: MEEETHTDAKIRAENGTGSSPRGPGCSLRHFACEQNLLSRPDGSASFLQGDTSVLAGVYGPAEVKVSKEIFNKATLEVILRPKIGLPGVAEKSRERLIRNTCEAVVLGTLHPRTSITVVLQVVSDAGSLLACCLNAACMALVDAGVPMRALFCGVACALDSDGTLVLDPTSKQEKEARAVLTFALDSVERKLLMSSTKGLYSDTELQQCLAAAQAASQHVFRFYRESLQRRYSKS
UniProt Q13868: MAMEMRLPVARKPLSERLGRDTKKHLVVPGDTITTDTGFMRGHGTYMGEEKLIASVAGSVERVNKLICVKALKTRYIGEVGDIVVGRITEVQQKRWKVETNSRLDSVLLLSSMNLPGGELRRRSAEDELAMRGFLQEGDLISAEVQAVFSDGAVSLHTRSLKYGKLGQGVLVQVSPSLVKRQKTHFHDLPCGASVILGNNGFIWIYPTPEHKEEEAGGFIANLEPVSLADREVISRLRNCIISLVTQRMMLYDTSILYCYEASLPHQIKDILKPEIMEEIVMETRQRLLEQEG
UniProt Q15024: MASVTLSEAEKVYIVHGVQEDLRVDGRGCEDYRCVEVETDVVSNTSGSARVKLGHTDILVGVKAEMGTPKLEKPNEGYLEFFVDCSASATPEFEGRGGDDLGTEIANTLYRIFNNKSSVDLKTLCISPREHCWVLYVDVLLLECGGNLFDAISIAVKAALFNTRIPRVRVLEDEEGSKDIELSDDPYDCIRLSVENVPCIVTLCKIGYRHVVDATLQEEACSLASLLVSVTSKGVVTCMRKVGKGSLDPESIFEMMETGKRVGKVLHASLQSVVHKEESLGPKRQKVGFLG
UniProt Q9Y3B2: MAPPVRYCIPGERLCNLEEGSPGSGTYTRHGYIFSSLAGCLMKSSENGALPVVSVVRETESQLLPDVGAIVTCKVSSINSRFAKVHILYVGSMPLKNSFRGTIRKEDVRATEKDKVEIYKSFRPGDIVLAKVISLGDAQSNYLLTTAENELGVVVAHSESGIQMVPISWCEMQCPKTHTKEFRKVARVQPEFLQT

For the experiment, the target named is T1, Flag-tagged full-length USP36 (wild type) (human) (UniProt Q9P275).
T1 sequence: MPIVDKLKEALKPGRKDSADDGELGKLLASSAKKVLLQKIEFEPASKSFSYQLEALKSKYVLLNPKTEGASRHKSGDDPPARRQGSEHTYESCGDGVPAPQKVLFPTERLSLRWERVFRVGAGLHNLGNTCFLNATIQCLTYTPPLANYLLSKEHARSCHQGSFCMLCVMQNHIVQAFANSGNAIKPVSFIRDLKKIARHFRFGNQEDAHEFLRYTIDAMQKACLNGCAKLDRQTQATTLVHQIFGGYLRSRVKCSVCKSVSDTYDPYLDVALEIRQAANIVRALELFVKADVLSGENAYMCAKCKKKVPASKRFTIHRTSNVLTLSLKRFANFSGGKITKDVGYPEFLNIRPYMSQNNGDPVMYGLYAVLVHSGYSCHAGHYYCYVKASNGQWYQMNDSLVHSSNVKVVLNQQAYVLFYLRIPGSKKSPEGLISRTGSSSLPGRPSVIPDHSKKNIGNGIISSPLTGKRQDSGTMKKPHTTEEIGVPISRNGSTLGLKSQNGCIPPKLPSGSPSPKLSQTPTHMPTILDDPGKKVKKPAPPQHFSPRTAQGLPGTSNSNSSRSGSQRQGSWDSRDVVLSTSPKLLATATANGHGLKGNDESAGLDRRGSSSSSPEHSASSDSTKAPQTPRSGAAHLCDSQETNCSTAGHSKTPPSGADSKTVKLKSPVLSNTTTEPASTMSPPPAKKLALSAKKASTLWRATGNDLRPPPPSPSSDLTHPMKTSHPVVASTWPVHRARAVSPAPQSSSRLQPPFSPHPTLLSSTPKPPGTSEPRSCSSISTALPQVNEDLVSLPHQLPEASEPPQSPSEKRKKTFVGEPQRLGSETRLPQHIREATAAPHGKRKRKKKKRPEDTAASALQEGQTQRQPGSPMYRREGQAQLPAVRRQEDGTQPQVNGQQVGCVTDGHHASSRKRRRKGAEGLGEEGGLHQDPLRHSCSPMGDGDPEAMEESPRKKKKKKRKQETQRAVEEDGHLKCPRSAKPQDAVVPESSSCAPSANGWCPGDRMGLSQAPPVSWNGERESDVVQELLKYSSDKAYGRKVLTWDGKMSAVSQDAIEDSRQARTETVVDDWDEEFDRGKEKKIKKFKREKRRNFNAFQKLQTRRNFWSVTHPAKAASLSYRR
Kind of experiment: affinity purification with mass spectrometry; 293 cells stably expressing Flag-USP36 or control; NP-40 lysis buffer; anti-Flag (M2) agarose, 4°C 4 h; elution with Flag peptides; MS/MS.

Take EXOSC6 (from UniProt Q5RKV6 1-272): the binding entry is “binds”.

Regarding EXOSC9 (from UniProt Q06265 1-439), the binding entry is recorded as “binds”.

Consider EXOSC5 (from UniProt Q9NQT4 1-235), for which the binding result is on record as “binds”.

For EXOSC2 (from UniProt Q13868 1-293), the binding entry was “binds”.

For the molecule EXOSC7 (from UniProt Q15024 1-291), the binding entry is reported as “binds”.

EXOSC1 (from UniProt Q9Y3B2 1-195): the binding entry is on record as “binds”.

B1: UTP18 (protein, UniProt Q9Y5J1 1-556)
chain: MPPERRRRMKLDRRTGAKPKRKPGMRPDWKAGAGPGGPPQKPAPSSQRKPPARPSAAAAAIAVAAAEEERRLRQRNRLRLEEDKPAVERCLEELVFGDVENDEDALLRRLRGPRVQEHEDSGDSEVENEAKGNFPPQKKPVWVDEEDEDEEMVDMMNNRFRKDMMKNASESKLSKDNLKKRLKEEFQHAMGGVPAWAETTKRKTSSDDESEEDEDDLLQRTGNFISTSTSLPRGILKMKNCQHANAERPTVARISSVQFHPGAQIVMVAGLDNAVSLFQVDGKTNPKIQSIYLERFPIFKACFSANGEEVLATSTHSKVLYVYDMLAGKLIPVHQVRGLKEKIVRSFEVSPDGSFLLINGIAGYLHLLAMKTKELIGSMKINGRVAASTFSSDSKKVYASSGDGEVYVWDVNSRKCLNRFVDEGSLYGLSIATSRNGQYVACGSNCGVVNIYNQDSCLQETNPKPIKAIMNLVTGVTSLTFNPTTEILAIASEKMKEAVRLVHLPSCTVFSNFPVIKNKNISHVHTMDFSPRSGYFALGNEKGKALMYRLHHYSDF
As to B1, the binding entry is “binds”.

B2: endogenous EXOSC10 (enzyme, UniProt Q01780 1-885)
chain: MAPPSTREPRVLSATSATKSDGEMVLPGFPDADSFVKFALGSVVAVTKASGGLPQFGDEYDFYRSFPGFQAFCETQGDRLLQCMSRVMQYHGCRSNIKDRSKVTELEDKFDLLVDANDVILERVGILLDEASGVNKNQQPVLPAGLQVPKTVVSSWNRKAAEYGKKAKSETFRLLHAKNIIRPQLKFREKIDNSNTPFLPKIFIKPNAQKPLPQALSKERRERPQDRPEDLDVPPALADFIHQQRTQQVEQDMFAHPYQYELNHFTPADAVLQKPQPQLYRPIEETPCHFISSLDELVELNEKLLNCQEFAVDLEHHSYRSFLGLTCLMQISTRTEDFIIDTLELRSDMYILNESLTDPAIVKVFHGADSDIEWLQKDFGLYVVNMFDTHQAARLLNLGRHSLDHLLKLYCNVDSNKQYQLADWRIRPLPEEMLSYARDDTHYLLYIYDKMRLEMWERGNGQPVQLQVVWQRSRDICLKKFIKPIFTDESYLELYRKQKKHLNTQQLTAFQLLFAWRDKTARREDESYGYVLPNHMMLKIAEELPKEPQGIIACCNPVPPLVRQQINEMHLLIQQAREMPLLKSEVAAGVKKSGPLPSAERLENVLFGPHDCSHAPPDGYPIIPTSGSVPVQKQASLFPDEKEDNLLGTTCLIATAVITLFNEPSAEDSKKGPLTVAQKKAQNIMESFENPFRMFLPSLGHRAPVSQAAKFDPSTKIYEISNRWKLAQVQVQKDSKEAVKKKAAEQTAAREQAKEACKAAAEQAISVRQQVVLENAAKKRERATSDPRTTEQKQEKKRLKISKKPKDPEPPEKEFTPYDYSQSDFKAFAGNSKSKVSSQFDPNKQTPSGKKCIAAKKIKQSVGNKSMSFPTGKSDRGFRYNWPQR
Regarding B2, the binding entry was “binds”.

B3: Dis3 (enzyme, UniProt Q9Y2L1 1-958)
chain: MLKSKTFLKKTRAGGVMKIVREHYLRDDIGCGAPGCAACGGAHEGPALEPQPQDPASSVCPQPHYLLPDTNVLLHQIDVLEDPAIRNVIVLQTVLQEVRNRSAPVYKRIRDVTNNQEKHFYTFTNEHHRETYVEQEQGENANDRNDRAIRVAAKWYNEHLKKMSADNQLQVIFITNDRRNKEKAIEEGIPAFTCEEYVKSLTANPELIDRLACLSEEGNEIESGKIIFSEHLPLSKLQQGIKSGTYLQGTFRASRENYLEATVWIHGDNEENKEIILQGLKHLNRAVHEDIVAVELLPKSQWVAPSSVVLHDEGQNEEDVEKEEETERMLKTAVSEKMLKPTGRVVGIIKRNWRPYCGMLSKSDIKESRRHLFTPADKRIPRIRIETRQASTLEGRRIIVAIDGWPRNSRYPNGHFVRNLGDVGEKETETEVLLLEHDVPHQPFSQAVLSFLPKMPWSITEKDMKNREDLRHLCICSVDPPGCTDIDDALHCRELENGNLEVGVHIADVSHFIRPGNALDQESARRGTTVYLCEKRIDMVPELLSSNLCSLKCDVDRLAFSCIWEMNHNAEILKTKFTKSVINSKASLTYAEAQLRIDSANMNDDITTSLRGLNKLAKILKKRRIEKGALTLSSPEVRFHMDSETHDPIDLQTKELRETNSMVEEFMLLANISVAKKIHEEFSEHALLRKHPAPPPSNYEILVKAARSRNLEIKTDTAKSLAESLDQAESPTFPYLNTLLRILATRCMMQAVYFCSGMDNDFHHYGLASPIYTHFTSPIRRYADVIVHRLLAVAIGADCTYPELTDKHKLADICKNLNFRHKMAQYAQRASVAFHTQLFFKSKGIVSEEAYILFVRKNAIVVLIPKYGLEGTVFFEEKDKPNPQLIYDDEIPSLKIEDTVFHVFDKVKVKIMLDSSNLQHQKIRMSLVEPQIPGISIPTDTSNMDLNGPKKKKMKLGK
In the case of B3, the binding entry is reported as “no binding”.

Values taken from PMC10164564.
